# The other results are listed elsewhere or left out. These are further read-outs of the screen, such as a control signal, another cell line or another target. No call is given for them. The list favours compounds with an active or inconclusive main result. Potencies come from curve fits of mixed quality, noted in brackets.
# Assay: qHTS Assay to Find Inhibitors of Chronic Active B-Cell Receptor Signaling
# Conditions: ABC-DLBCL IkBa-CBG/CBR reporter, luminescence ratio (green luciferase fused to IkBa over red control in TMD8 lymphoma cells), 4 h
# Method in brief: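 Concentration-response series (up to 46 uM) were applied to TMD8 dual-reporter cells for 4 h at 37C with doxycycline. Green/red ratio, after filter-overlap correction, defined %Activity; red signal alone was normalised to basal cells and zero luminescence.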
# [1] = measured here: CBR red luminescence, cell number
# [2] = measured here: IkBa-CBG green luminescence
SMILES,AC50 [1],AC50 [2]
COc1ccc(NC(=O)c2sc3nc(N4CCOCC4)c4c(c3c2N)CC(C)(C)OC4)cc1,"5.62 µM [rising, partial curve, poor fit]",–
O=C1/C(=C/c2cccc(Br)c2)SC(=S)N1/N=C/c1cc([N+](=O)[O-])ccc1O,"6.31 µM [falling, full curve, poor fit]",–
C=CC[C@@H](CC(=O)NCCO)C(=O)N[C@@H](COC(=O)[C@@H](CC=C)CC(=O)OC(C)(C)C)Cc1c[nH]c2ccccc12,"0.13 µM [rising, full curve, poor fit]",–
CN(C(=S)NC(=O)C12CC3CC(CC(C3)C1)C2)c1ccc(O)cc1,"29.1 µM [rising, single point]","32.6 µM [falling, partial curve, poor fit]"
O=C(O)c1cccnc1SCc1cn2cc(Cl)ccc2n1,"3.55 µM [falling, partial curve, poor fit]",–
Cc1ccc(S(=O)(=O)CC(=O)c2ccc([N+](=O)[O-])cc2)cc1,"0.1 µM [rising, full curve, poor fit]",–
O=C(O)c1cccc(NCc2ccncc2)c1,"5.8 µM [rising, partial curve, poor fit]",–
O=C(c1cc2cc(Cl)ccc2[nH]1)N1CCN(C(=O)c2ccco2)CC1,"14.1 µM [falling, partial curve, poor fit]",–
Cc1nnnn1/C(=C\c1ccccc1)C(=O)OCC(=O)Nc1ccc(Cl)cc1F,"4.61 µM [falling, full curve, poor fit]",–
CCSc1nnc2c(n1)[nH]c1c(C)cccc12,"3.16 µM [falling, partial curve, poor fit]",–
O=C(Nc1ccccc1)c1cc([N+](=O)[O-])ccc1NC1CCCCC1,"29.1 µM [rising, single point]",–
Cc1ccc(-c2cc(-c3ccc(F)cc3)nc(N)c2C#N)o1,"29.1 µM [falling, single point]",–
Cc1ccc(C2C(=O)N(C3CCCC3)CC(=O)N2C2CCCCC2)cc1 (stereo unspecified),"0.00731 µM [falling, full curve, poor fit]",–
Cc1ccc(S(=O)(=O)N2CCN(C(=O)COC(=O)CCOc3ccc(C(C)(C)C)cc3)CC2)cc1,"32.6 µM [falling, partial curve, poor fit]",–
CCC(=O)c1ccc(OCC(=O)Nc2ccccc2N2CCCCC2)cc1,"0.708 µM [falling, full curve, poor fit]",–
CCOC(=O)[C@@H]1[C@H]2COc3ccc(Br)cc3[C@@H]2N2C(=O)N(c3ccc(C(F)(F)F)cc3)C(=O)[C@@]12C,"4.47 µM [falling, partial curve]",–
O=C(CN1CCc2cc3c(cc2C1)OCCCO3)Nc1ccccc1,"11.2 µM [falling, partial curve]",–
O=C(N[C@@H](Cc1ccccc1)C(=O)CCl)OCc1ccccc1,"8.2 µM [falling, partial curve]",–
CCOC(CNC(=O)c1cccn2c(=O)c3c(C)c(C)sc3nc12)OCC,"35.5 µM [falling, single point]",–
Cc1ccc(S(=O)(=O)CCSc2nc(C)cc(C(F)(F)F)c2C#N)cc1,"14.6 µM [falling, partial curve]",–
O=C(Nc1cc(C(=O)N2CCN(c3ccccc3O)CC2)ccc1Cl)c1cccs1,"29.1 µM [falling, single point]",–

SMILES,AC50 [1],AC50 [2]
Cc1[nH]nc2c1C(c1ccc(OC(=O)c3ccco3)cc1)C(C#N)=C(N)O2 (stereo unspecified),"11.2 µM [falling, partial curve, poor fit]",–
O=C(c1cccc(S(=O)(=O)N2CCc3ccccc32)c1)N1CCN(c2ccccc2)CC1,"29.1 µM [falling, partial curve, poor fit]",–
O=C(NOCc1ccccc1)c1ccc([N+](=O)[O-])cc1,"29.1 µM [falling, single point]",–
O=C(N/N=C/c1ccccn1)c1ccc(N/N=C/c2ccccn2)cc1,"6.31 µM [falling, partial curve, poor fit]",–
O=C1CSC(c2cccc([N+](=O)[O-])c2)N1C1CC2CCC1C2 (stereo unspecified),"11.2 µM [rising, partial curve]",–
CC(NC(=O)CCl)c1ccc(Cl)c(Cl)c1 (stereo unspecified),"18.4 µM [falling, partial curve, poor fit]",–
Cc1cc(Nc2ccccc2)nc(NCc2ccccc2)n1,"29.1 µM [falling, single point]","20.6 µM [rising, partial curve, poor fit]"
CC1CCCC(C)N1C(=O)/C=C/c1ccc(S(=O)(=O)N2CCOCC2)cc1 (stereo unspecified),"18.4 µM [rising, partial curve, poor fit]",–
CCN(CC)CC(C)CNC(=O)C1(O)c2ccccc2NC(=O)N1c1ccc(Cl)c(Cl)c1 (stereo unspecified),"12.6 µM [falling, partial curve, poor fit]",–
Cc1ccc(C(=O)Nc2nnc(-c3ccncc3)s2)o1,"3.66 µM [falling, full curve]",–
CC(C)CC(=O)Nc1cccc(-c2nc3ccccc3[nH]2)c1,"35.5 µM [falling, single point]",–
O=C(/C=C/c1ccccc1)N1CCN(CCN2C(=O)c3cccc4cccc(c34)C2=O)CC1,"0.731 µM [rising, full curve, poor fit]",–
CCCCc1ccc(NC(=S)NCCc2ccc(F)cc2)cc1,"35.5 µM [falling, single point]",–
Cc1ccccc1C(=O)NC1CCN(CC(=O)NCc2ccccc2)CC1,"1.12 µM [falling, full curve, poor fit]",–
Cc1noc(NC(=O)c2cccc(C(F)(F)F)c2)c1Cl,"14.1 µM [falling, single point]",–
O=C(NNC(=O)C1COc2ccccc2O1)c1cccc([N+](=O)[O-])c1 (stereo unspecified),"35.5 µM [falling, single point]",–
N/C(=N\OC(=O)COc1ccc(Br)cc1Cl)c1ccccn1,"0.651 µM [rising, full curve, poor fit]",–
Cn1c(N/N=C\c2cccc(O)c2)cc(=O)n(C)c1=O,"13 µM [falling, partial curve, poor fit]",–
Cc1cc(C)n2nc(C(=O)N/N=C/c3ccc(O)cc3)nc2n1,"12.6 µM [falling, partial curve, poor fit]",–
CC(Nc1ccc(N2CCOCC2)cc1)C(=O)N1c2ccccc2CC1C (stereo unspecified),"5.62 µM [rising, single point]",–
CC(C)c1ccc(/C=C/C(=O)Nc2ccc(CN3CCOCC3)cc2)cc1,"35.5 µM [falling, single point]",–

# Exported with tabs: entries from further up.
SMILES	AC50 [1]	AC50 [2]
Cc1ccc(S(=O)(=O)CC(=O)c2ccc([N+](=O)[O-])cc2)cc1	0.1 µM [rising, full curve, poor fit]	–
O=C(c1cc2cc(Cl)ccc2[nH]1)N1CCN(C(=O)c2ccco2)CC1	14.1 µM [falling, partial curve, poor fit]	–
O=C(Nc1ccccc1)c1cc([N+](=O)[O-])ccc1NC1CCCCC1	29.1 µM [rising, single point]	–
Cc1ccc(S(=O)(=O)N2CCN(C(=O)COC(=O)CCOc3ccc(C(C)(C)C)cc3)CC2)cc1	32.6 µM [falling, partial curve, poor fit]	–
CCC(=O)c1ccc(OCC(=O)Nc2ccccc2N2CCCCC2)cc1	0.708 µM [falling, full curve, poor fit]	–
O=C(CN1CCc2cc3c(cc2C1)OCCCO3)Nc1ccccc1	11.2 µM [falling, partial curve]	–
Cc1[nH]nc2c1C(c1ccc(OC(=O)c3ccco3)cc1)C(C#N)=C(N)O2 (stereo unspecified)	11.2 µM [falling, partial curve, poor fit]	–
Cc1cc(Nc2ccccc2)nc(NCc2ccccc2)n1	29.1 µM [falling, single point]	20.6 µM [rising, partial curve, poor fit]
CC1CCCC(C)N1C(=O)/C=C/c1ccc(S(=O)(=O)N2CCOCC2)cc1 (stereo unspecified)	18.4 µM [rising, partial curve, poor fit]	–
CCN(CC)CC(C)CNC(=O)C1(O)c2ccccc2NC(=O)N1c1ccc(Cl)c(Cl)c1 (stereo unspecified)	12.6 µM [falling, partial curve, poor fit]	–
CC(C)CC(=O)Nc1cccc(-c2nc3ccccc3[nH]2)c1	35.5 µM [falling, single point]	–
CCCCc1ccc(NC(=S)NCCc2ccc(F)cc2)cc1	35.5 µM [falling, single point]	–
Cc1noc(NC(=O)c2cccc(C(F)(F)F)c2)c1Cl	14.1 µM [falling, single point]	–
N/C(=N\OC(=O)COc1ccc(Br)cc1Cl)c1ccccn1	0.651 µM [rising, full curve, poor fit]	–
CC(C)c1ccc(/C=C/C(=O)Nc2ccc(CN3CCOCC3)cc2)cc1	35.5 µM [falling, single point]	–

# (continued)

SMILES,AC50 [1],AC50 [2]
COCc1cc(CN2CCCC(C(=O)Nc3ccc(-c4ccco4)cc3)C2)ccc1OC (stereo unspecified),"12.6 µM [falling, single point]",–
CCOC(=O)C1CCN(CC(O)COCc2ccc(Cl)cc2)CC1 (stereo unspecified),"8.91 µM [rising, partial curve, poor fit]",–
CCOC(=O)CN(C(=O)CSc1nnc(C)n1-c1ccccc1)c1cccc([N+](=O)[O-])c1,"25.9 µM [falling, single point]","29.1 µM [rising, partial curve, poor fit]"
CC1=C/C(=N\NC(=S)NCc2ccccc2)CC1,"35.5 µM [rising, single point]","3.16 µM [falling, partial curve, poor fit]"
O=C1CN(C(=O)CNCc2ccccc2Cl)c2ccccc2N1,"35.5 µM [falling, single point]",–
CCOc1ccc(C(c2nnnn2C(C)(C)C)N2CCN(C(=O)c3ccco3)CC2)cc1 (stereo unspecified),"3.98 µM [rising, full curve, poor fit]",–
COc1cc(/C=N/Nc2cccc3cccnc23)cc(OC)c1O,"6.31 µM [falling, partial curve]",–
CC(C)(C)OC(=O)CN1c2cccc3cccc(c23)S1(=O)=O,"11.2 µM [rising, partial curve, poor fit]",–
C=C(C)c1cccc(C(C)(C)NC(=O)N(C)C2CCN(C)CC2)c1,"10 µM [falling, partial curve, poor fit]",–
CC(COc1ccc(/C=C/c2ccccc2)cc1)[N+](C)(C)C (stereo unspecified),"23.1 µM [rising, partial curve]","16.4 µM [falling, single point]"
COc1ccc(C2CC(c3cccs3)=NN2C(=O)CSc2nncn2C)cc1OC (stereo unspecified),"31.6 µM [rising, single point]",–
Cc1cc(CN2CCCCC2)oc1C(=O)O,"29.1 µM [falling, single point]",–
C=CCN=C1NN=C(c2cc(C)n(CCOC)c2C)CS1,"20.6 µM [rising, partial curve, poor fit]",–
CC(C)N1CC(O)=C(c2ccccc2)C1=N,"35.5 µM [rising, single point]",–
COc1ccc(C(=O)Nc2ccc(N3CCCC3)cc2)cc1OC,"1.41 µM [falling, full curve]",–
CCn1c(-c2ccccc2)c(C(=O)CCl)c2ccccc21,"35.5 µM [falling, single point]",–
COc1ccc(N2CC(C(=O)Nc3nc(-c4ccccc4)c(C(C)=O)s3)CC2=O)c(OC)c1 (stereo unspecified),"7.31 µM [falling, partial curve, poor fit]",–
COc1cc(Cl)c(CC(=O)c2c[nH]c3ccccc23)cc1OC,"8.91 µM [falling, partial curve]",–
Cc1ccsc1C(=O)Nc1n[nH]c(C(F)(F)F)n1,"8.91 µM [falling, partial curve]",–

# From PubChem BioAssay AID493014 (National Center for Advancing Translational Sciences (NCATS), 2011)
